Laboratory results: US5760003 (dated 1998)

Legend:
[1] = general procedure: Boc solid-phase peptide synthesis; BOC-Lys (Cl-Z)-PAM resin (substitution 0.63 mM/g); conditions: whole synthesis
[2] = general procedure: Boc solid-phase peptide synthesis; BOC-Lys(Cl-Z)-PAM resin; conditions: whole synthesis

Substance | final HPLC purity [1] | crude mass [2] | isolated mass [2] | crude mass ([2]; scale 0.56 mm) | isolated mass ([2]; scale 0.56 mm)
Pic-Glu-Asp-Abu-Lys | 97% | Two hundred and fifty-one milligrams | 141 mg | – | –
Pic-Ser-Asp-Abu-Lys | 97% | – | – | Two hundred and ninety-eight milligrams | 178 mg
[pGlu]ED[Abu]K | – | Two hundred twenty milligrams | 130 mg | – | –
[pGlu]ED[Abu]YK | 90% | – | – | Four hundred and fifty-four milligrams | –

Where no end group is shown, it is not given here. [ ]: non-standard residue; d: D form. pGlu = O=C1CC[C@@H](C(=O)O)N1; Abu = CC[C@H](N)C(=O)O
